As a reminder, the ED50 is the dose that gives a 50% effect, or the effect in half of the subjects.

Results on one compound are retold here after patent US4624953A, “1-piperazinocarboxylates and pharmaceutical compositions containing them” (priority 1981, dated 1986).

The test system of the assay is isolation-induced aggressive behaviour. As to the kind of experiment: Isolation-induced aggressive behaviour test. The format is in vivo, male NMRI mice. As to conditions: Mus musculus, sc, 0.5 h, read-out: ED50, isolation induced aggressive behaviour. The source says: Male mice subjected to prolonged isolation develop aggressive behaviour against each other when paired (Yen, C. Y. et al., Arch. Int. Pharmacodyn. 123, 179, (1959); Valzelli, L., Adv. Pharmacol. 5, 79 (1967)). […] The clinical correlation of this test indicates tranquillizing and anxiolytic activities as well as antiaggressive properties as such (Duncan, R. L. et al., J. Med. Chem. 13, 1 (1970)).
This type of aggression is interesting because it is known that this kind of emotional behaviour might be located in limbic structures in the brain (MacLean, P. D., Psychosom. Med. 11, 338 (1949)).
Every week male NMRI mice, weighing 20-22 g, were isolated in Makrolon cages for three weeks with diet and water ad libitum. A piece of cardboard was placed between the cages to prevent visual contact.
To test aggressiveness the mice were paired in a neutral area, a beaker (14 cm high and diameter 14 cm). A pair is considered aggressive if both the animals show clear signs of fighting within 5 min. This fighting is characterized by biting and vocalization. As soon as fighting is seen, the mice are separated and brought to their home cage. […] Animals showing no aggression are discarded. […] The test substance is administered s.c. (0.2-0.4 ml/20 g). The mice are paired 0.5 h after the injection for trials of 5 min. duration. […]

Turning to `CN1C(=O)CN=C(c2ccccc2)c2cc(Cl)ccc21` [Diazepam], the ED50 was found to be 6.7 mg/kg.
